Results are given in words; binding and its absence hold for the method and conditions named. Binding calls can cover weak binding; strength is not graded here.
How the values were obtained:
Assay in all cases: peptide or protein array; Panomics SH3 Domain Arrays I and II: immobilised SH3 domains fused to GST, hybridised with purified N-terminally His-tagged SH3-b domain, detected with peroxidase-conjugated anti-His antibody and ECL; both purified
[1] = molecular target: VAV3-D2 SH3 domain (SH3 domain array) (UniProt Q9UKW4)
[2] = molecular target: Abl2 (ARG) SH3 domain (SH3 domain arrays) (UniProt P42684)
[3] = molecular target: T1, RasGAP SH3 domain (SH3 domain array) (UniProt P20936)
T1 sequence: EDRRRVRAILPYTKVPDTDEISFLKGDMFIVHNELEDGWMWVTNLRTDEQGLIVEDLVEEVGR

Sequences of proteins named here, by UniProt entry; tags and fusion partners are left off. A change or cut given only in a name is not applied to a line headed by its entry. Residues count along the entry.
UniProt Q9UKW4: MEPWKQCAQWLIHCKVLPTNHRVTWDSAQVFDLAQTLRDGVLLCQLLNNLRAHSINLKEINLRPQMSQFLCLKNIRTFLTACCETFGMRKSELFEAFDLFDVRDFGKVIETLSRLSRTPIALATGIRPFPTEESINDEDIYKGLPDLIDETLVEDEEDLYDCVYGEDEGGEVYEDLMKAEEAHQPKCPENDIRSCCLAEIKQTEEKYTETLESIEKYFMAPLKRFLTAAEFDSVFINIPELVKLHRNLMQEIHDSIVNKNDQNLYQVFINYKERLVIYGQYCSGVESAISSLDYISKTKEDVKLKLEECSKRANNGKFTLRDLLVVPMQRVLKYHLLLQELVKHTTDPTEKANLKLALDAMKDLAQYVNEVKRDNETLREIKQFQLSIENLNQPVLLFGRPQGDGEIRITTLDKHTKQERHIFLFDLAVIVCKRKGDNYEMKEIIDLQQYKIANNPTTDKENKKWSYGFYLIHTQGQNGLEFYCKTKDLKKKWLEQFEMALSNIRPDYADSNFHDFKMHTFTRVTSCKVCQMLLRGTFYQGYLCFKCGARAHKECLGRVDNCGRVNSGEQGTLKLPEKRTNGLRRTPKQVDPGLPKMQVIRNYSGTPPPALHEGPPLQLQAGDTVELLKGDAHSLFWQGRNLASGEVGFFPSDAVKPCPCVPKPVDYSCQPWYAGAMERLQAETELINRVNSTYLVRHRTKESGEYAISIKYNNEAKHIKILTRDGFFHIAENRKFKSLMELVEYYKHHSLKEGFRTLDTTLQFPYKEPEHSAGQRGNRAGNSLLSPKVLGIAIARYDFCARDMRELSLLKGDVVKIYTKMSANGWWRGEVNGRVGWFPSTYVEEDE
UniProt P42684, residues 107-167: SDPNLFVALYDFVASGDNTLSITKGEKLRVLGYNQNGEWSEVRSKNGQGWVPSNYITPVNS
UniProt O60504: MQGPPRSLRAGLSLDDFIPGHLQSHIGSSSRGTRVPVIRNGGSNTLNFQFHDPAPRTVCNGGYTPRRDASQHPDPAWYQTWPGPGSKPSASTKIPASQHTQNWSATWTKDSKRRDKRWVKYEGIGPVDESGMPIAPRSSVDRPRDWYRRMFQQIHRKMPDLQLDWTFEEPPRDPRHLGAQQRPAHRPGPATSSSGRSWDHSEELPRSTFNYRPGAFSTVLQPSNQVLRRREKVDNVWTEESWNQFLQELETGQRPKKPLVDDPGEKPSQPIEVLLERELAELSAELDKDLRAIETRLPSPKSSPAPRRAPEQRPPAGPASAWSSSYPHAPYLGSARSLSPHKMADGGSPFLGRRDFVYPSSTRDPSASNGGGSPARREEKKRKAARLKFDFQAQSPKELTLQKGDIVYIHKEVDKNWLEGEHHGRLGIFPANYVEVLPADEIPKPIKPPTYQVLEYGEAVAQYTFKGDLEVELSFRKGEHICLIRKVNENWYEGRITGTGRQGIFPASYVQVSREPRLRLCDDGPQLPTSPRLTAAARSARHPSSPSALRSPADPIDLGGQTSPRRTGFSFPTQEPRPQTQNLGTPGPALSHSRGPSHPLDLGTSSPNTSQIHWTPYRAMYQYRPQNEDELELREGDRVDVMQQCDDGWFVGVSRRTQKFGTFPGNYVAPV
UniProt Q9NYB9, residues 451-510: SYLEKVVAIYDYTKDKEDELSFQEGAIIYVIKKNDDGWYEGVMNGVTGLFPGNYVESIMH
UniProt Q92783, residues 210-269: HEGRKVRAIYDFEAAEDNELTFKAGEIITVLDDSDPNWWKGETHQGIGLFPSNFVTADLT
UniProt P27986, residues 3-79: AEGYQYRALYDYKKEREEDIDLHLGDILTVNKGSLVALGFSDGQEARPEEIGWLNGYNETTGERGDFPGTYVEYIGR
UniProt P42680, residues 179-239: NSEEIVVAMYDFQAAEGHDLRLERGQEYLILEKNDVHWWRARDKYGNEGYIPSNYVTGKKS
UniProt Q06187, residues 214-274: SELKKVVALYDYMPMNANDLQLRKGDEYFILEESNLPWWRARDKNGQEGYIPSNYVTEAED
UniProt O14936, residues 612-682: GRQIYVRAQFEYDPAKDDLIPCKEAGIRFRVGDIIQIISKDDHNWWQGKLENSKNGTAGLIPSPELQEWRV
UniProt Q9Y5X1, residues 1-62: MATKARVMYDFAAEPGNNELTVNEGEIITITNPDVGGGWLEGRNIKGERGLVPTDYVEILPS
UniProt P52735: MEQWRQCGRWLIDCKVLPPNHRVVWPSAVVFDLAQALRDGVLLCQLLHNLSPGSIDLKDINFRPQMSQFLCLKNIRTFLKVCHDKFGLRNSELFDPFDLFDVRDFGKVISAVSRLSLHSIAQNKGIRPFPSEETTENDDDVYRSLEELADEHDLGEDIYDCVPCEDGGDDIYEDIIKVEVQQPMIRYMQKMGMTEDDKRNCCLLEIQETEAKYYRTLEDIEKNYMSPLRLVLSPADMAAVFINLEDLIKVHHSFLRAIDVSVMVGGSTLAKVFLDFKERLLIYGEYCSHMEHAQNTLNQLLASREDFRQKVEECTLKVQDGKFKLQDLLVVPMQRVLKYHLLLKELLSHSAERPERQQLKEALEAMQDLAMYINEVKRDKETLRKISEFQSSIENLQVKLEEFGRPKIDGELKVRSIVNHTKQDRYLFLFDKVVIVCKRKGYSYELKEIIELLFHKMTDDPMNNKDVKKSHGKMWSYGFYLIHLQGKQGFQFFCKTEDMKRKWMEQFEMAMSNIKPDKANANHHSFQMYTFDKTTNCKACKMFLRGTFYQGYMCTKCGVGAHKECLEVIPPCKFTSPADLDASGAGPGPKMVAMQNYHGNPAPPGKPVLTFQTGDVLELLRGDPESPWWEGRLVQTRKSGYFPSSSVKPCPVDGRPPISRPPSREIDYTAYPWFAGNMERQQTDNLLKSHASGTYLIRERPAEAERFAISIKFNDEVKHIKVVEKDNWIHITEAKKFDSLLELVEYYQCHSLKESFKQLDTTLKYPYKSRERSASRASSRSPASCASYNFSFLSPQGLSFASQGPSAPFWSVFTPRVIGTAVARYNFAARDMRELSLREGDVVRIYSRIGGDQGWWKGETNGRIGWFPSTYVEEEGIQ
UniProt P07947, residues 91-152: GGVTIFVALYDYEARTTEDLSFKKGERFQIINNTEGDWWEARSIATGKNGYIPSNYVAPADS
UniProt P51451, residues 58-118: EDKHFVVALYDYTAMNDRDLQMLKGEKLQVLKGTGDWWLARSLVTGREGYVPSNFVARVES
UniProt P19878: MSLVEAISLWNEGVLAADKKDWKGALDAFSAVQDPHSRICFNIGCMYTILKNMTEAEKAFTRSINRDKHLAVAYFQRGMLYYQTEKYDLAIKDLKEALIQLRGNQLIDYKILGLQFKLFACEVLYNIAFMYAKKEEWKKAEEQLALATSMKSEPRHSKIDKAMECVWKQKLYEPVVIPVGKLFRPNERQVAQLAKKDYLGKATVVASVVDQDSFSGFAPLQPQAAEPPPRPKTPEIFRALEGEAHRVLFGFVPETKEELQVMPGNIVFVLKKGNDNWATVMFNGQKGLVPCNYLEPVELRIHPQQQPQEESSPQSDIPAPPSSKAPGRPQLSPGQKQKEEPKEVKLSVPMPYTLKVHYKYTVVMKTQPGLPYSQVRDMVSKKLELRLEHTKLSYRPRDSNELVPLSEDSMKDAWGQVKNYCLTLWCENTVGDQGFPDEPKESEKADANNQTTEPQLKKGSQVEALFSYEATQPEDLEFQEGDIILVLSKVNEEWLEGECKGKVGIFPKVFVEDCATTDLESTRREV
UniProt P56945: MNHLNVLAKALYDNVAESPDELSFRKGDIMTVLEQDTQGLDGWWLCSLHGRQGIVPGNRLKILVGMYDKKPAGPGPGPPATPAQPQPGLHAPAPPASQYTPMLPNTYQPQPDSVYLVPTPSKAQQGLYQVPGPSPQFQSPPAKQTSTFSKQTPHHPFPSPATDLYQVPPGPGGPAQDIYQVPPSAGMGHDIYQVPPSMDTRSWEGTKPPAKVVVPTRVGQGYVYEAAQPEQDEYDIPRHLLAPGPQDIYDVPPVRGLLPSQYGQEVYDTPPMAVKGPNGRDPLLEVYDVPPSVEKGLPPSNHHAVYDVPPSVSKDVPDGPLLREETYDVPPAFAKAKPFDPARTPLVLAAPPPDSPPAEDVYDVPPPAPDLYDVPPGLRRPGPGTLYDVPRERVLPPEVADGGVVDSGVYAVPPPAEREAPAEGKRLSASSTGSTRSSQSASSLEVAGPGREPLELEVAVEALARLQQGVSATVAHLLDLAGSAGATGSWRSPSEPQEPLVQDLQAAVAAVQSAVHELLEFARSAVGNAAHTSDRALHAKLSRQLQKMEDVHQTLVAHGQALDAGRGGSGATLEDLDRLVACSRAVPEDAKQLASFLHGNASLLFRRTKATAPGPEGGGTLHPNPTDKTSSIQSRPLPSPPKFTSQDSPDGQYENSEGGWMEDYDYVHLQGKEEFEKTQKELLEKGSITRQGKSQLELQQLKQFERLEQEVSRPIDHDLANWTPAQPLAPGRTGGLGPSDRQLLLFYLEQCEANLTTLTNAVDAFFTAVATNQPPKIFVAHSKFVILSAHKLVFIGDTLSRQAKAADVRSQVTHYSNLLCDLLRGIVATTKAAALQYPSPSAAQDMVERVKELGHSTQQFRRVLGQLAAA

[4] = molecular target: T2, EFS SH3 domain (SH3 domain array) (UniProt O43281)
T2 sequence: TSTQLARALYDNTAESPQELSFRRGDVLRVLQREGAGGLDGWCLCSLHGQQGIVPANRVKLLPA

[5] = molecular target: T3, MLPK3 SH3 domain (SH3 domain array) (UniProt Q16584)
T3 sequence: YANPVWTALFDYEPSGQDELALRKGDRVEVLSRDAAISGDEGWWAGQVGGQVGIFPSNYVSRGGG

[6] = molecular target: VINE-D3 SH3 domain (SH3 domain array) (UniProt O60504)
[7] = molecular target: Abi2-SH3 domain (AbI2B) (SH3 domain array) (UniProt Q9NYB9)
[8] = molecular target: Stam SH3 domain (SH3 domain array) (UniProt Q92783)
[9] = molecular target: PI3α SH3 domain (SH3 domain array) (UniProt P27986)
[10] = molecular target: Tec SH3 domain (SH3 domain array) (UniProt P42680)
[11] = molecular target: BTK SH3 domain (SH3 domain array) (UniProt Q06187)
[12] = molecular target: T4, PIG2 SH3 domain (SH3 domain array) (UniProt P16885)
T4 sequence: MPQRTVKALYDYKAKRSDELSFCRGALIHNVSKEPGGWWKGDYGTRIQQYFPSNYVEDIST

[13] = molecular target: CSKP SH3 domain (SH3 domain array) (UniProt O14936)
[14] = molecular target: SNX9 SH3 domain (SH3 domain array) (UniProt Q9Y5X1)
[15] = molecular target: VAV2-D2 SH3 domain (SH3 domain array) (UniProt P52735)
[16] = molecular target: Yes1 SH3 domain (SH3 domain array) (UniProt P07947)
[17] = molecular target: BLK SH3 domain (SH3 domain array) (UniProt P51451)
[18] = molecular target: NOF2-D1 SH3 domain (SH3 domain arrays) (UniProt P19878)
[19] = molecular target: T5, OSF SH3 domain (SH3 domain array) (UniProt Q92882)
T5 sequence: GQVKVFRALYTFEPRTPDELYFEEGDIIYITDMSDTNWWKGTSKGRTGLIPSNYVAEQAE

## His-tagged-p130Cas-P2 domain (from UniProt P56945) (domain or fragment)
[1]
  binding: binds weakly
[2]
  binding: binds
[3]
  binding: binds weakly
[4]
  binding: binds weakly
[5]
  binding: binds
[6]
  binding: binds
[7]
  binding: binds
[8]
  binding: binds weakly
[9]
  binding: binds
[10]
  binding: binds
[11]
  binding: binds
[12]
  binding: binds
[13]
  binding: binds weakly
[14]
  binding: binds
[15]
  binding: binds
[16]
  binding: binds
[17]
  binding: binds weakly
[18]
  binding: binds
[19]
  binding: binds
